Data as given in PubChem BioAssay AID504786 (Drosophila RNAi Screening Center, 2011).

- Aim: 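Knock-downs reducing HIF reporter induction by the iron chelator DFO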 (primary screen)
- Cell system: Drosophila S2 cells with a stable HIF luciferase reporter
- Reagents: long dsRNA against Drosophila genes, about 0.2 µg dsRNA per well of a 384-well plate
- Time to read-out: three days of knock-down, then 20 h of DFO before reading
- Conditions: desferrioxamine (DFO) at 100 µM, an iron chelator that mimics hypoxia, for 20 h
- Measured: 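Firefly luciferase driven by the mouse ldh-a hypoxia-response element, measured after 20 h of 100 µM DFO; z-scores per plate, higher means more signal lost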
- Direction: z-score: higher = stronger loss of HIF reporter signal
The deposit covers about 21,000 reagents; below is a random part of those that have a named target and a result. 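Primary screen; positive scores mean lost reporter signal, so the sign may be inverted from the usual convention.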 A plus sign joins genes that one reagent is predicted to hit. Not all columns of the deposit are shown.

z-score, replicate 1, by target gene and reagent
CG7737: DRSC07033 -0.3
CG2121: DRSC06819 -0.3; DRSC06820 -0.3
CG30289: DRSC03870 0.1
beta-Spec: DRSC20311 -0.3
CG34433: DRSC15077 -0.3
CG3065: DRSC04333 -0.2
esc: DRSC03529 -0.3
Dg: DRSC06718 -0.2
RpS14a: DRSC18710 5.6
Drep2: DRSC07528 -0.3
lncRNA:CR42862 + CG33229: DRSC08497 -0.2
CG9150: DRSC03148 -0.4
Ibf2: DRSC16551 -0.2
sas: DRSC12631 0.2
ATPsynD: DRSC14093 0.1
CG33308: DRSC01419 -0.1
CG4911: DRSC10456 -0.2
Su(H): DRSC03445 -0.3
CG7916: DRSC01901 0
CG7655: DRSC16275 -0.2
mRpL11: DRSC15482 1.1
Drsl2: DRSC08160 -0.1
sp3: DRSC16354 0.3
fan: DRSC10930 -0.3
CG15124: DRSC06546 -0.3
CG13978: DRSC14720 -0.4
COX4L: DRSC04841 0
Pbp45: DRSC16509 -0.4
Atg16: DRSC15052 -0.3; DRSC15300 0; DRSC15375 -0.2
CG10681: DRSC09777 -0.4
CG13056: DRSC09937 -0.2
Prp40: DRSC00612 0.6
Prp39: DRSC15133 -0.2
mip40: DRSC06541 -0.3
ari-2: DRSC04672 -0.2
CIAPIN1: DRSC03559 -0.4
pall: DRSC10364 0.3
Klf15: DRSC17742 -0.3
AP-1gamma: DRSC18433 0.3
GATAd: DRSC02803 -0.2
Tango2: DRSC19394 -0.2
RpL7-like + CG34164: DRSC02836 -0.3; DRSC02837 -0.4
vlc: DRSC04922 -0.1
RpL4: DRSC16833 6.6
stac: DRSC13693 -0.3; DRSC14392 -0.5
Or43a: DRSC07485 -0.3
su(w[a]): DRSC18840 0.5
SMC6: DRSC15829 -0.4
CG13716: DRSC08325 -0.4
wfs1: DRSC15676 0
Ranbp21: DRSC19447 1.4
Est-6: DRSC11162 -0.3

Targets listed so far whose gene name starts with D or d:
z-score, replicate 1, by target gene and reagent
Dg: DRSC06718 -0.2
Drep2: DRSC07528 -0.3
Drsl2: DRSC08160 -0.1

The results go on:
z-score, replicate 1, by target gene and reagent
Eglp2: DRSC04294 -0.2
fs(1)h: DRSC18778 -0.4
CG15719: DRSC19685 0
Ktl: DRSC14270 0
alphaTub84B: DRSC12622 1.6
CG30338: DRSC05166 0
LBR: DRSC04298 0.3
CG17325 + CG42305: DRSC02602 -0.4
CG17834: DRSC02637 -0.5
CG8159: DRSC16392 -0.3
List: DRSC06520 -0.3
ND-B17: DRSC01981 -0.3
NitFhit: DRSC08680 -0.1
CG32052: DRSC10966 -0.1
Cyp6t2Psi: DRSC01840 0.9
Nach: DRSC07478 0
CG32104: DRSC10127 0; DRSC10128 -0.3
LysP: DRSC08676 -0.3
CG31788: DRSC01630 -0.4
CG15269: DRSC01942 -0.1
Cwc25: DRSC00545 0.5
Cog2: DRSC16987 -0.7
CG9609: DRSC20199 0.2
Ist1: DRSC09697 -0.3
Calr: DRSC16614 -0.3
Lap1: DRSC07454 -0.2
lic: DRSC20347 1.1
Hex-C: DRSC07079 1.6
CG1946: DRSC06804 -0.4
Kua: DRSC02100 -0.4
CG18788: DRSC02697 -0.4
HLH54F: DRSC07438 -0.6
eIF4H1: DRSC20276 2.9
E(spl)mbeta-HLH: DRSC16697 -0.3
schlank: DRSC18102 -0.2; DRSC18313 -0.2
CG4927: DRSC06903 -0.3
Obp47b + CG7741: DRSC06330 -0.2
ste24b: DRSC07315 -0.2
Mdr65: DRSC11220 -0.2
CtsL3: DRSC12171 -0.4
CG6678: DRSC16092 -0.3
CG2767: DRSC15451 -0.3
CG15597: DRSC12283 -0.2
RN-tre: DRSC07521 -0.4
Ets98B: DRSC16666 -0.5
MCU: DRSC10339 -0.2
CG14770: DRSC17947 -0.2
